Mtb cholesterol medium: 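Growth of Mycobacterium tuberculosis over 4 days (cholesterol / DPPC medium with tyloxapol); the read-out is not stated. Tested at 50 µM. Direction is inferred from retests: higher values go with more growth inhibition. Size under these conditions: about 69,000 compounds, about 370 of them at 50% or above in at least one test.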
Mtb glucose medium: 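Phenotypic screen: M. tuberculosis growth, glucose 7H9 medium, 3 days; the read-out is not stated. Compounds at 50 µM. Direction is inferred from retests: higher values go with more growth inhibition. Of about 69,000 compounds tested this way, about 760 (1.1%) reached 50% or more in at least one test.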

The filed quantity is “Percent Effect” (%).
The controls that fix the scale are not given in the record; negative values are as filed.
The compounds are a random part of those screened.
Two or more numbers in one place are separate tests of the same structure; such repeats can differ widely.

| compound | Mtb cholesterol medium | Mtb glucose medium |
|---|---|---|
| `Cc1cnc(CN(C)C2CCN(Cc3sc(C)nc3C)C2)o1` (stereo unspecified) | -16.23% | -31.43% |
| `CCN(Cc1ccncc1)C(=O)c1cn(CCCc2ccccc2)nn1` | -3.961% | -5.183% and -3.048% |
| `CCn1cc(Cl)c(C(=O)NCCCN(C)C)n1` | 27.98% | 32.31% |
| `CCc1cnc(C)nc1NCCN1CCCC(C(N)=O)C1` (stereo unspecified) | -3.397% | 2.311% and -2.13% |
| `COCCn1cc(NC(=O)NC(C)Cc2c(F)cccc2F)cn1` (stereo unspecified) | -32.92% | -29.71% |
| `Cc1ccc(OCC(C)NS(C)(=O)=O)cc1` (stereo unspecified) | -1.466% | -3.837% |
| `Cc1noc(-c2ccc(N3CCCC(C(=O)c4nccn4C)C3)nc2)n1` (stereo unspecified) | -12.2% and -1.793% | -28.15% |
| `Cc1ccc(-c2cc(-c3nc(CN4CCN(C)CC4)no3)[nH]n2)s1` | 3.196% | 43.36% |
| `Cn1ccnc1CN1CC[C@@H](NS(C)(=O)=O)[C@@H]1Cc1ccccc1.O=C(O)C(F)(F)F` | -19.39% | 4.033% |
| `CC(CNC(=O)NCCCc1cc(N)n(-c2ccccc2)n1)N(C)C` (stereo unspecified) | -42.85% | -37.56% |
| `O=S(=O)(C1CC1)N1CCc2ncnc(-c3ccsc3)c2CC1` | -2.892% | 0.7064% and -15.8% |
| `COc1cc(CN2CCCC2)ccc1Oc1ncccc1C(F)(F)F` | 3.909% | 12.32% and 13.08% |
| `O=C(c1cccnc1)N1CCN(c2ccnc3ccsc23)CC1` | 7.32% and -7.449% | -48.41% |
| `COc1cc2c(cc1CNCc1ccnc(-n3cccn3)c1)OC(C)C2.Cl` (stereo unspecified) | -8.96% | -3.878% and -16.12% |
| `COCCNC(=O)N1CCC(NC(C)C)CC1` | -22.01% | -26.34% and -0.4331% |
| `Cc1nc(CN(C)C2CCN(Cc3cccc4cccnc34)C2)no1` (stereo unspecified) | -29.77% | -31.05% |
| `CC1=Nc2c(c(=O)[nH]n2C2CCOCC2)C(c2cccc(O)c2)S1` (stereo unspecified) | 4.562% | 5.058% |
| `N#Cc1cccnc1N1CCN(S(=O)(=O)NCc2ccccc2)CC1` | -1.888% | -2.619% |
| `Cn1ncc(C(=O)N2CCN(CCS(C)(=O)=O)CC2)c1Cl` | -0.567% | -15.86% |
| `COc1ncnc2c1CCN(Cc1cccs1)CC2.O=C(O)C(F)(F)F` | -2.035% | 8.971% and 0.1975% |
| `CN1CCN(Cc2c(-c3ccco3)[nH]c3ncccc23)CC1` | -9.161% | 3.944% |
| `Cn1cc(N2CCCC(SCc3ccco3)C2=O)cn1` (stereo unspecified) | -6.818% | 4.265% |
| `CN1CCCN(C(=O)c2csc3nc(-c4ccc(Cl)cc4)cn23)CC1` | 28.32% | 41.88% |
| `CN(C)Cc1nnc2n1CCN(c1cnccn1)CC2.O=C(O)C(F)(F)F` | 14.12% | 5.665% and -3.209% |
| `CN(C)c1cc2c(nn1)CCN(C(=O)C1CCc3ccccc31)C2` (stereo unspecified) | 5.348% | -0.1398% |
| `CC(C)(C)CN[C@@H]1CO[C@H](CNC(=O)c2cccs2)[C@H]1O` | 4.147% | 5.744% and -3.983% |
| `Cc1cnn(CC2CCCN2CC(=O)Nc2cc(C)nn2C)c1` (stereo unspecified) | -10.28% | 24.04% |
| `CCn1ncc(C(=O)NCc2ccc(C)c(OC)c2)c1C(F)(F)F` | 6.113% | 19.38% |
| `O=S(=O)(N[C@H]1CC[C@H]1NC1Cc2ccccc2C1)c1cccnc1` | -11.41% and -7.171% | -11.78% |
| `[H][C@@]12CC[C@H](Oc3cccc(F)c3)[C@]1([H])CN(C(=O)c1cccc(C)n1)C2` | -3.917% | 35.12% |
| `CCC(CC)C(=O)N1CCN(C)c2ncccc2C1` | -27.85% | 2.853% and 6.506% |
| `O=C(O)C(F)(F)F.O=C(O)C(F)(F)F.[H][C@@]12CN(Cc3ccoc3)C[C@]1([H])C(=O)N(Cc1cccnc1)C2` | -18.35% | -11.73% |
| `Cc1nc2c(c(C)c1CC(=O)NCc1cccs1)c(=O)[nH]n2C` | -0.8063% | 7.502% |
| `O=C(O)CCn1ccc(=O)c2ccccc21` | -7.457% | 22.97% |
| `[H][C@@]12CN(C)CCO[C@]1([H])CN(S(=O)(=O)c1ccc(OC)cc1)C2` | -18.06% | -5.607% |
| `O=C(O)C(F)(F)F.[H][C@@]12CCCO[C@]1([H])[C@H](NS(C)(=O)=O)CN(Cc1cc(C)on1)C2` | -9.146% | 9.468% and -1.297% |
| `Cc1ccc2c(c1)OCCCC2NC1CCN(C)CC1` (stereo unspecified) | 4.525% | -4.312% and -1.268% |
| `[H][C@@]12CCN(C(=O)NC(C)C)CC[C@]1(C(=O)N(C)C)CCN2CC` | -11.86% | -31.96% |
| `CCC(CC)C(=O)N1CCN(Cc2cc(-c3ccncc3)nn2C)CC1` | -20.95% | -15.38% |
| `CCc1cc(N[C@H]2CC[C@H](O)CC2)n2nc(C)c(C)c2n1` | -22.5% | 3.098% and -0.6887% |
| `CC(C)n1cc(CN2CCCN(C(=O)c3ccc[nH]3)CC2)cn1` | 11.94% and -1.556% | 21.11% |
| `Cc1nc(CC(C)C)cc(C(=O)N2C[C@@H](CN(C)C)[C@@H](CO)C2)n1` | -5.554% | 7.964% and 2.07% |
| `Cc1nn(-c2ccccc2)c(C)c1CNC(=O)NC1CC1` | 5.777% | 0.2169% and -8.49% |
| `Cl.NCCc1cc(N2CCOCC2)nc(NC2CC2)n1` | 3.165% and -20.63% | -15.16% |
| `COCc1cnc2n1CCN(C(=O)C1=CCCC1)C2C` (stereo unspecified) | -10.34% | 1.517% |
| `CC1CCCN(c2ncc(-c3ccccc3F)c(-c3nccn3C)n2)C1` (stereo unspecified) | -14.55% and 8.158% | -3.781% |
| `O=C(O)C(F)(F)F.O=C(O)C(F)(F)F.[H][C@@]12OCCN(Cc3ccncc3)[C@@]1([H])CC[C@H]2OCC1CCCC1` | 3.677% | -0.1237% |
| `O=C(NCc1cccnc1)C1=NOC2(CCN(S(=O)(=O)C3CC3)C2)C1` (stereo unspecified) | 11.36% | 13.41% |
| `CCC(=O)Nc1ccc2c(c1)CN(C(=O)c1ccco1)CC2` | -12.02% | -2.536% |
| `CCc1cc(N2CCN(c3ccc(Cl)cn3)CC2)n2nccc2n1` | 15.23% | 36.03% |
| `[H][C@@]12CS(=O)(=O)C[C@]1([H])N(Cc1nccs1)CCN2CCOC` | -1.985% | -33.13% |
| `O=S1(=O)CCC(c2nnc(-c3cnc4onc(C5CC5)c4c3)o2)C1` (stereo unspecified) | -9.409% | -31.21% and -2.187% |
| `CCN1CCOCC12CCN(c1nccs1)CC2.O=C(O)C(F)(F)F` | 5.988% | 15.02% |
| `CCNC(=O)[C@@H]1CCCN1C(=O)c1cccc(CCC(C)(C)O)c1` | -15.26% and -13.93% | -24.44% |
| `CC(=O)N(Cc1ncc(C(C)C)o1)C1CCN(CCn2cccn2)C1` (stereo unspecified) | -7.078% | -16.78% |
| `Brc1ccc(-c2nnc(CN(Cc3cccs3)CC3CCCO3)o2)s1` (stereo unspecified) | 5.285% | 26.29% |
| `O=C(c1ncccc1O)N1CCc2c(nc(-c3ccncc3)[nH]c2=O)C1` | -40.45% | -8.878% and -31.95% |
| `O=C(Cc1cccnc1)N1CCCC(c2cc(C(F)(F)F)[nH]n2)C1` (stereo unspecified) | -7.117% | -15.31% and 1.525% |
| `CN(C)CCN(C)C(=O)Cn1cccc2cc(-c3ccc(F)cc3)nc1-2` | -2.013% | 3.919% |
| `COC(=O)CCNC(=O)c1nnn(-c2ccc(F)cc2)c1C1CC1` | 9.315% | 2.68% and 5.422% |
| `O=C(Nc1nncs1)N1CCC(c2ccc(O)cc2)CC1` | 14.06% | 32.89% |
| `Cc1nc(Nc2nnc(C)s2)cc(C2CCCN2C)n1` (stereo unspecified) | -20.84% | -0.4477% |
| `CC(C)n1[nH]c(=O)c2c1NC(=O)CC2c1ccc(C#N)cc1` (stereo unspecified) | -37.87% | -42.26% |
| `CCn1cnnc1CNC(=O)N1CCN(Cc2ccsc2)CC1` | -4.756% | -2.512% |
| `Cc1ccc(NCc2ccccc2C#N)cc1-n1cnnn1` | -1.723% | 19.45% |
| `NC(=O)c1cc(CC2CCCN(c3cnccn3)C2)ncn1` (stereo unspecified) | 9.99% | -6.565% |
| `Cn1cc(C(=O)N2CCCC(n3cncn3)C2)ccc1=O` (stereo unspecified) | 23.22% | 16.82% |
| `O=c1[nH]c(C2CCOC2)nc2cc(F)c(F)cc12` (stereo unspecified) | -13.19% | -10.92% and -6.154% |
| `CS(=O)(=O)N1CCCC(Cc2cncc(-c3ccccc3C(=O)O)n2)C1` (stereo unspecified) | 16.3% | 0.1011% |
| `O=C(NCCCC(=O)N1Cc2ccccc2C1)NCc1cccnc1` | 5.251% | 16.33% and -3.193% |
| `Cc1cccc(N2N=C(C(=O)NC(C)Cn3cccn3)CCC2=O)c1` (stereo unspecified) | -5.397% | 1.02% |

The last 7 entries again:

compound	Mtb cholesterol medium	Mtb glucose medium
Cc1ccc(NCc2ccccc2C#N)cc1-n1cnnn1	-1.723%	19.45%
NC(=O)c1cc(CC2CCCN(c3cnccn3)C2)ncn1 (stereo unspecified)	9.99%	-6.565%
Cn1cc(C(=O)N2CCCC(n3cncn3)C2)ccc1=O (stereo unspecified)	23.22%	16.82%
O=c1[nH]c(C2CCOC2)nc2cc(F)c(F)cc12 (stereo unspecified)	-13.19%	-10.92% and -6.154%
CS(=O)(=O)N1CCCC(Cc2cncc(-c3ccccc3C(=O)O)n2)C1 (stereo unspecified)	16.3%	0.1011%
O=C(NCCCC(=O)N1Cc2ccccc2C1)NCc1cccnc1	5.251%	16.33% and -3.193%
Cc1cccc(N2N=C(C(=O)NC(C)Cn3cccn3)CCC2=O)c1 (stereo unspecified)	-5.397%	1.02%

From ChEMBL document CHEMBL3988442, “University of Dundee, Small-Polar-MMV Screening Library” (2021).